Source: patent US20240285545A1, “NANOSUSPENSION FORMULATION FOR TREATMENT OF PULMONARY FIBROSIS” (The Johns Hopkins University, priority 2023, published 2024)
Some of these results come from one statement about several compounds together. For at least one compound, name, drawing or mass did not settle the structure.

Tested on: silica-induced pulmonary fibrosis model
Experiment: Therapeutic efficacy in silica-induced pulmonary fibrosis model (histology, lung mechanics)
Type: in vivo, C57BL/6 mice
Details: oral 100 mg/kg daily
Experimental: The Study design for assessing the therapeutic efficacy of NTB-NS in a preclinical silica-induced pulmonary fibrosis model is shown in FIG. 7. The silicosis model was established by a single intratracheal instillation of silica microparticles (800 mg/kg) into the lungs of C57BL/6 mice (Silicosis); in parallel, healthy control animals received saline in an identical manner (Control). Fifteen days after the silica instillation, animals were randomly assigned to different groups to receive oral daily doses of NTB-Esy at 100 mg/kg or intratracheal NTB-NS at a NTB dose of 0.1 or 1 mg/kg every 72 hours. Lungs were harvested for analysis at Day 34. IT: intratracheal; OR: oral. […]
For lung mechanics analysis at the end of treatments, mice were sedated with diazepam (1 mg/kg, intraperitoneal), anesthetized with thiopenthal sodium (20 mg/kg, intraperitoneal), tracheotomized, paralyzed with vecuronium bromide (0.005 mg/kg, intravenous), and ventilated with a constant flow ventilator (Samay VR 15, Montevideo, Uruguay) using the following parameters: frequency 100 breaths/min; tidal volume 0.2 mL; fraction of inspired oxygen 0.21. […] Data were analyzed using ANADAT data analysis software (RHT-InfoData Inc., Montreal Canada).
For histological analysis, left lung tissues were fixed with 4% paraformaldehyde and embedded in paraffin blocks. […] The granuloma fraction was calculated as follows: […]

## CCS(=O)(=O)O.COC(=O)c1ccc2c(c1)NC(=O)/C2=C(\Nc1ccc(N(C)C(=O)CN2CCN(C)CC2)cc1)c1ccccc1 [NTB-Esy, NTB Esylate]
  Granuloma area (fractional area of lung tissue), average: over 30%
